Results are given in words; binding and its absence hold for the method and conditions named. Binding seen in cells or lysates may run through a third protein.
Legend:
[1] = molecular target: E-cadherin (human (endogenous in MCF7 and HEK293T)); test: co-IP; lysates of parental (nontransfected) and GFP-Syk-expressing MCF7 cells; ≈700 μg lysate with 2 μg antibody, protein-A/G Sepharose beads, 4 °C, 3 h; Western blot
[2] = molecular target: E-cadherin (human (endogenous in MCF7 and HEK293T)); test: co-IP; lysates of HEK293T cells transiently transfected or not with a FLAG-Syk plasmid; ≈700 μg lysate with 2 μg antibody, protein-A/G Sepharose beads, 4 °C, 3 h; Western blot

- binding [1]: no binding
- binding [2]: no binding
B1: Hakai E3 ubiquitin-ligase (protein, UniProt Q75N03 1-491)
chain: MDHTDNELQGTNSSGSLGGLDVRRRIPIKLISKQANKAKPAPRTQRTINRMPAKAPPGDEEGFDYNEEERYDCKGGELFANQRRFPGHLFWDFQINILGEKDDTPVHFCDKCGLPIKIYGRMIPCKHVFCYDCAILHEKKGDKMCPGCSDPVQRIEQCTRGSLFMCSIVQGCKRTYLSQRDLQAHINHRHMRAGKPVTRASLENVHPPIAPPPTEIPERFIMPPDKHHMSHIPPKQHIMMPPPPLQHVPHEHYNQPHEDIRAPPAELSMAPPPPRSVSQETFRISTRKHSNLITVPIQDDSNSGAREPPPPAPAPAHHHPEYQGQPVVSHPHHIMPPQQHYAPPPPPPPPISHPMPHPPQAAGTPHLVYSQAPPPPMTSAPPPITPPPGHIIAQMPPYMNHPPPGPPPPQHGGPPVTAPPPHHYNPNSLPQFTEDQGTLSPPFTQPGGMSPGIWPAPRGPPPPPRLQGPPSQTPLPGPHHPDQTRYRPYYQ
